Data source: PubChem BioAssay AID602196 (INSERM, 2012)
Assay: 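Knock-downs that protect lung cancer cells from cisplatin or sensitise them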. Cell system: human A549 lung cancer cells. Reagents: siRNA pair against human genes. Duration: 48 h transfection before cisplatin; time from cisplatin to read-out not stated. Conditions: cisplatin at a dose killing half of control-siRNA cells; exact dose and duration not given. Read-out: 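Shift in cisplatin death relative to control siRNA, from -50 (all cells die) to +50 (no cells die); siRNAs harmful on their own scored 0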. Scale: two-siRNA summed score (-2 to +2): higher = both siRNAs protect from cisplatin killing; -2 means both sensitise. Active means: 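siRNAs harmful alone (LDH or WST-1) get 0; others get +1 for less and -1 for more cisplatin killing; genes are active when the two siRNAs give the same sign, summing to ±2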. Meaning of the calls: active = both siRNAs shift cisplatin killing the same way; inactive = no consistent shift, or siRNA harmful alone.
Here is an unselected part of about 23,000 reagents tested. Of all reagents, 455 (2%) got an active call. 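Active includes both protection and sensitisation; some change values fall well beyond the stated -50 to +50 range.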 Further read-outs or replicates are left out here. The record does not give: the amount of reagent.

LOC442461 → two-siRNA summed score (-2 to +2) = 0; Outcome = inactive
SH3YL1 (SH3 and SYLF domain containing 1) → two-siRNA summed score (-2 to +2) = 0; Outcome = inactive
DYNC1LI2 (dynein cytoplasmic 1 light intermediate chain 2) → two-siRNA summed score (-2 to +2) = 1; Outcome = inactive
GPX2 (glutathione peroxidase 2) → two-siRNA summed score (-2 to +2) = 0; Outcome = inactive
HPCA (hippocalcin) → two-siRNA summed score (-2 to +2) = 0; Outcome = inactive
SPCS2P1 (signal peptidase complex subunit 2 pseudogene 1) → two-siRNA summed score (-2 to +2) = 1; Outcome = inactive
ZFYVE19 (zinc finger FYVE-type containing 19) → two-siRNA summed score (-2 to +2) = 0; Outcome = inactive
CSGALNACT2P1 (CSGALNACT2 pseudogene 1) → two-siRNA summed score (-2 to +2) = 0; Outcome = inactive
WDR46 (WD repeat domain 46) → two-siRNA summed score (-2 to +2) = 0; Outcome = inactive
ODAD3 (outer dynein arm docking complex subunit 3) → two-siRNA summed score (-2 to +2) = -1; Outcome = inactive
ZNF574 (zinc finger protein 574) → two-siRNA summed score (-2 to +2) = 0; Outcome = inactive
SRRM4 (serine/arginine repetitive matrix 4) → two-siRNA summed score (-2 to +2) = 0; Outcome = inactive
P4HA3 (prolyl 4-hydroxylase subunit alpha 3) → two-siRNA summed score (-2 to +2) = 2; Outcome = active
KIF25-AS1 (KIF25 antisense RNA 1) → two-siRNA summed score (-2 to +2) = 0; Outcome = inactive
LOC400933 → two-siRNA summed score (-2 to +2) = 0; Outcome = inactive
FLJ90680 (retired record) → two-siRNA summed score (-2 to +2) = 0; Outcome = inactive
SNAPC4 (small nuclear RNA activating complex polypeptide 4) → two-siRNA summed score (-2 to +2) = 0; Outcome = inactive
GNB3 (G protein subunit beta 3) → two-siRNA summed score (-2 to +2) = 0; Outcome = inactive
NCOA3 (nuclear receptor coactivator 3) → two-siRNA summed score (-2 to +2) = -1; Outcome = inactive
HLA-DPA1 (major histocompatibility complex, class II, DP alpha 1) → two-siRNA summed score (-2 to +2) = 1; Outcome = inactive
OXNAD1 (oxidoreductase NAD binding domain containing 1) → two-siRNA summed score (-2 to +2) = -1; Outcome = inactive
RAB42 (RAB42, member RAS oncogene family) → two-siRNA summed score (-2 to +2) = 0; Outcome = inactive
TREM2 (triggering receptor expressed on myeloid cells 2) → two-siRNA summed score (-2 to +2) = 0; Outcome = inactive
LOC400664 → two-siRNA summed score (-2 to +2) = 0; Outcome = inactive
TPBG (trophoblast glycoprotein) → two-siRNA summed score (-2 to +2) = 0; Outcome = inactive
LOC400590 (retired record) → two-siRNA summed score (-2 to +2) = 0; Outcome = inactive
ZNF607 (zinc finger protein 607) → two-siRNA summed score (-2 to +2) = 0; Outcome = inactive
LOC442422 → two-siRNA summed score (-2 to +2) = 0; Outcome = inactive
GNL2 (G protein nucleolar 2) → two-siRNA summed score (-2 to +2) = 0; Outcome = inactive
DGKI (diacylglycerol kinase iota) → two-siRNA summed score (-2 to +2) = 0; Outcome = inactive
LOC401351 → two-siRNA summed score (-2 to +2) = 0; Outcome = inactive

Taken from above:
SNAPC4 (small nuclear RNA activating complex polypeptide 4), Outcome = inactive
Value for WDR46 (WD repeat domain 46) in “two-siRNA summed score (-2 to +2)”: 0
